Data taken from patent US11807664 (dated 2023).

Assay: general procedure: peptide synthesis; HATU/DIPEA (cyclisation of Cyclosporin A precursor); iodine (Desmopressin)
Conditions: cyclisation step, 205 nm

Cyclosporin A
crude HPLC purity (run 1): 73.12% | crude HPLC purity (run 2): 85.28% | crude HPLC purity (run 3): 87.14% | crude HPLC purity (run 4): 86.609%
